Measurements taken from the supplement of paper PMC10849652.
This is one part of the list.

Sequences of proteins named here, by UniProt entry; tags and fusion partners are left off. A change or cut given only in a name is not applied to a line headed by its entry.
UniProt Q9Y5R8, whole entry, looked up: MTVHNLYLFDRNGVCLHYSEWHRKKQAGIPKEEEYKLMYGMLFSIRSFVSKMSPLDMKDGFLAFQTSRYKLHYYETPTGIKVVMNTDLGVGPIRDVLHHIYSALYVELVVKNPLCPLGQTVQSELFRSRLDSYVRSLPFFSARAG
UniProt Q15642: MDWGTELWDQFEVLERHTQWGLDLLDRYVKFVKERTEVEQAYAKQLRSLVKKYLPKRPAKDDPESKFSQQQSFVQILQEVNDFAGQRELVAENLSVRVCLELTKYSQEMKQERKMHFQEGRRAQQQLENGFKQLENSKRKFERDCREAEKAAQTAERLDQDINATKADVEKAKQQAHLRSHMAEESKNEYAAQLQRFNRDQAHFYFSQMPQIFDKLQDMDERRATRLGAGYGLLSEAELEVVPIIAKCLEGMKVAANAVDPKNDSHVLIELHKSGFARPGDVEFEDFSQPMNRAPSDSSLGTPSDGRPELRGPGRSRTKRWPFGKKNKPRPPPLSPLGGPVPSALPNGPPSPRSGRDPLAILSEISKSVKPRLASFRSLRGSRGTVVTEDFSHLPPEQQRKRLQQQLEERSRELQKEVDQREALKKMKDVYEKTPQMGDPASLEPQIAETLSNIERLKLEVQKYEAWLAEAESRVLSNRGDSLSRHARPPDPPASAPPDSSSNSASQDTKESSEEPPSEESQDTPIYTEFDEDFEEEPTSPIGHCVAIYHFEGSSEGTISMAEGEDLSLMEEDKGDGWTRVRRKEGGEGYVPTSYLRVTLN
UniProt O14656: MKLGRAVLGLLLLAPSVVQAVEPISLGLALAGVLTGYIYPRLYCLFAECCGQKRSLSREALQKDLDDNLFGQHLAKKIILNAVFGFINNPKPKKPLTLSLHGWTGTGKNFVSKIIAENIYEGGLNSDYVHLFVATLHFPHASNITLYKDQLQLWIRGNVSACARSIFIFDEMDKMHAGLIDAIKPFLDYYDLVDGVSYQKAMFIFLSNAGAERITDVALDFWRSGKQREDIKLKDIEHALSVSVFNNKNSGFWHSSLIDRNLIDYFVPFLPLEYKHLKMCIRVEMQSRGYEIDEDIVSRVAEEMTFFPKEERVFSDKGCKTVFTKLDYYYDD
UniProt Q96FX7: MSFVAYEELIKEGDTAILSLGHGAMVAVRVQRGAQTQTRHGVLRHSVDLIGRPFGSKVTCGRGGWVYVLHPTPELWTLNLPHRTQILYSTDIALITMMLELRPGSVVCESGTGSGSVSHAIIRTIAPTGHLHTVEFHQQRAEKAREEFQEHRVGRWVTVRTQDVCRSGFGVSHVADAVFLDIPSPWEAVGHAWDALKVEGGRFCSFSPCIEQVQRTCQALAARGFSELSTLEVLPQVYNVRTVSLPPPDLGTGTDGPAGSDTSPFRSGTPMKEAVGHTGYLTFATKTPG
UniProt Q7Z4G4: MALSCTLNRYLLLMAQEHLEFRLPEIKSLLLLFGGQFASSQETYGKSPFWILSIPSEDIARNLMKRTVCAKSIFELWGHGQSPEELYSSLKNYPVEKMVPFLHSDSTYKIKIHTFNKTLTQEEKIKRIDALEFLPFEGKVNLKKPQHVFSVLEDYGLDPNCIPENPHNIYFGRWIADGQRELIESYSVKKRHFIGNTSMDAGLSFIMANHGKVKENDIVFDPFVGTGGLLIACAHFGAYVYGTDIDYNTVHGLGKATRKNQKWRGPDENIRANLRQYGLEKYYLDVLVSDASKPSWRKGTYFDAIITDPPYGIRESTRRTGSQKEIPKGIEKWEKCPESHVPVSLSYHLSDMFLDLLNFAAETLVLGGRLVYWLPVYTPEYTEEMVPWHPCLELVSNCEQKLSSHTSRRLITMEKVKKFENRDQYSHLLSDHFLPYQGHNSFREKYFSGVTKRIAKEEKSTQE
UniProt O14773: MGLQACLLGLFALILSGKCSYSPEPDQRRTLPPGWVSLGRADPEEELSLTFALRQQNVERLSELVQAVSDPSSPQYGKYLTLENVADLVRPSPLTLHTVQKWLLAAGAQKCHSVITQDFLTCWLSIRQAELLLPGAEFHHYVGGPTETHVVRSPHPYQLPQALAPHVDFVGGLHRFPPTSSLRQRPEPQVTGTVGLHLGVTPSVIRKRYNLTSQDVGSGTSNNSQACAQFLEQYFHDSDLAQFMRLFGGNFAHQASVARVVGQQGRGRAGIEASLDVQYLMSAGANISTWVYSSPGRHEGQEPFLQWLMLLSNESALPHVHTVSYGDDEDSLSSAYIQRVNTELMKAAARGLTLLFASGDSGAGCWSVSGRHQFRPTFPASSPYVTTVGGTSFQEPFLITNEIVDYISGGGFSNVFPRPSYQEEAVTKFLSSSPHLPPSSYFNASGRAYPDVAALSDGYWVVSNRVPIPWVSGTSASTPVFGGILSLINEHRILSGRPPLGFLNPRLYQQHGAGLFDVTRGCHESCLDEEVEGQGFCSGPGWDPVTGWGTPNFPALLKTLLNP
UniProt A5PLN9: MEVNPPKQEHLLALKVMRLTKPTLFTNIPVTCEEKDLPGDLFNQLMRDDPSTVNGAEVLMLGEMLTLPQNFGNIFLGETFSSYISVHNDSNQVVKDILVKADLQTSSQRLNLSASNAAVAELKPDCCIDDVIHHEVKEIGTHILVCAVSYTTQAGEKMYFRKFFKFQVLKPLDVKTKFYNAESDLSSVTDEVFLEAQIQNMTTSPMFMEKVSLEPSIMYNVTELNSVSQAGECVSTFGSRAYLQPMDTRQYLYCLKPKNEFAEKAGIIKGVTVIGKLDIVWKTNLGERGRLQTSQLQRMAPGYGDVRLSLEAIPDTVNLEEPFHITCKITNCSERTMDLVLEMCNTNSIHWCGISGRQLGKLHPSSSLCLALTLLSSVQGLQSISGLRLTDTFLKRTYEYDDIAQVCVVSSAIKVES
UniProt Q9C0C2: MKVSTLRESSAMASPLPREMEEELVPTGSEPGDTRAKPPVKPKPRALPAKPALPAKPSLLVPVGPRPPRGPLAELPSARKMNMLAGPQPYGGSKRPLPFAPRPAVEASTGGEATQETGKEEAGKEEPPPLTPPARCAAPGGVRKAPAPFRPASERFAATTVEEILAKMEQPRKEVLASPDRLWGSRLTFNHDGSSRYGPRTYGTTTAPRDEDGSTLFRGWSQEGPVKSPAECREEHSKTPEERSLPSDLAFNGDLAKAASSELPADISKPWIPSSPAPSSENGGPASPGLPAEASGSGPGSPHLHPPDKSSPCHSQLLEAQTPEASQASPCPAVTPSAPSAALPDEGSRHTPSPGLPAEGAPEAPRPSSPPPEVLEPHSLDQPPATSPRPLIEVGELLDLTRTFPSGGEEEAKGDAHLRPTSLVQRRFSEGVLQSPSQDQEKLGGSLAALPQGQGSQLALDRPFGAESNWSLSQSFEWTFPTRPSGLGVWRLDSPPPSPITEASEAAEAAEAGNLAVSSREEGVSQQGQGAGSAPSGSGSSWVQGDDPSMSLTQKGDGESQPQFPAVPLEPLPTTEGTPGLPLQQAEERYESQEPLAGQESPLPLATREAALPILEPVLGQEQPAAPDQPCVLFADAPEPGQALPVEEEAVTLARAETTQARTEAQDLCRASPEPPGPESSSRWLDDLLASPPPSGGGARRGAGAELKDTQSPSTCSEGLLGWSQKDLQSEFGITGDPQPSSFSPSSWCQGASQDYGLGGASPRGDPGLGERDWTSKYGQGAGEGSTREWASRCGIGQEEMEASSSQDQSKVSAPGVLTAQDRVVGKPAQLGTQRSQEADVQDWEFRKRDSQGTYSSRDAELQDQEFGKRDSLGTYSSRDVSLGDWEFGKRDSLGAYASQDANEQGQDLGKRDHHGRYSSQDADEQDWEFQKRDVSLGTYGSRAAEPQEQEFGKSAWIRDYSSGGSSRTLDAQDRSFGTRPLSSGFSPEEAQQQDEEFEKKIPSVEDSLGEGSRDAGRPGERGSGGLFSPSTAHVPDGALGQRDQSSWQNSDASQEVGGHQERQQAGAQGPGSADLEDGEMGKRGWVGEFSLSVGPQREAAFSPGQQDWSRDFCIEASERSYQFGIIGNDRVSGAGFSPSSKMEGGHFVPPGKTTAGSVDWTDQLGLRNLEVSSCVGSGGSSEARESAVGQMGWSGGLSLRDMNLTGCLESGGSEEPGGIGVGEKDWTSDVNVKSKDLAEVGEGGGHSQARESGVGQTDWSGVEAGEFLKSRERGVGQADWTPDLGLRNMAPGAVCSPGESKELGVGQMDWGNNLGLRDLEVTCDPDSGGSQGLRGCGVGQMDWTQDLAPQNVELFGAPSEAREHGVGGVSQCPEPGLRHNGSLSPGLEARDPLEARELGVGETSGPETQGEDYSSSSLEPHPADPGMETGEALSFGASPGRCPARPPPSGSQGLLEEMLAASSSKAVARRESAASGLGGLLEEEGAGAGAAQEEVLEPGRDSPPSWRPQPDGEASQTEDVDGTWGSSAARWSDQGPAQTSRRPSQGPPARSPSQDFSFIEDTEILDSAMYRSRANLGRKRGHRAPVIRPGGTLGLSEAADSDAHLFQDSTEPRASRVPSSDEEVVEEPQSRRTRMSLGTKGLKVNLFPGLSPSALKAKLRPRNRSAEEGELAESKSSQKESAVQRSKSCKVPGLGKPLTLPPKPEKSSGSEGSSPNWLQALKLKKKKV
UniProt O60704: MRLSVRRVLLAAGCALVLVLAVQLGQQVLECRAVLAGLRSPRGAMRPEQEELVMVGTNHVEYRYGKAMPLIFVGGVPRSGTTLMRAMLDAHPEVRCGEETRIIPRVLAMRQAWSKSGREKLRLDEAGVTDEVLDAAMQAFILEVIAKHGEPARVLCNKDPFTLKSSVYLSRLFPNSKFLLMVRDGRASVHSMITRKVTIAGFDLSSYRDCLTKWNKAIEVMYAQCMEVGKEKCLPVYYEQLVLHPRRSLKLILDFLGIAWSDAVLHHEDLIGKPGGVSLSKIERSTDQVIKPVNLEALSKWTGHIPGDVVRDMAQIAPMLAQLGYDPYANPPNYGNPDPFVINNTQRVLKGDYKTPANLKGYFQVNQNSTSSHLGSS
UniProt P67936, whole entry, looked up: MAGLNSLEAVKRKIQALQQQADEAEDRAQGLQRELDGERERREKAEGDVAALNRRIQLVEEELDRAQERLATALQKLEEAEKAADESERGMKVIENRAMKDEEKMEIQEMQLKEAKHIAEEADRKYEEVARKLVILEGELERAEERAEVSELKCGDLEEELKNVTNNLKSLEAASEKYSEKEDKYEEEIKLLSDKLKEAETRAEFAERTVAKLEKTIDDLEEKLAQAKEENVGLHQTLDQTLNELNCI
UniProt Q9UKE5: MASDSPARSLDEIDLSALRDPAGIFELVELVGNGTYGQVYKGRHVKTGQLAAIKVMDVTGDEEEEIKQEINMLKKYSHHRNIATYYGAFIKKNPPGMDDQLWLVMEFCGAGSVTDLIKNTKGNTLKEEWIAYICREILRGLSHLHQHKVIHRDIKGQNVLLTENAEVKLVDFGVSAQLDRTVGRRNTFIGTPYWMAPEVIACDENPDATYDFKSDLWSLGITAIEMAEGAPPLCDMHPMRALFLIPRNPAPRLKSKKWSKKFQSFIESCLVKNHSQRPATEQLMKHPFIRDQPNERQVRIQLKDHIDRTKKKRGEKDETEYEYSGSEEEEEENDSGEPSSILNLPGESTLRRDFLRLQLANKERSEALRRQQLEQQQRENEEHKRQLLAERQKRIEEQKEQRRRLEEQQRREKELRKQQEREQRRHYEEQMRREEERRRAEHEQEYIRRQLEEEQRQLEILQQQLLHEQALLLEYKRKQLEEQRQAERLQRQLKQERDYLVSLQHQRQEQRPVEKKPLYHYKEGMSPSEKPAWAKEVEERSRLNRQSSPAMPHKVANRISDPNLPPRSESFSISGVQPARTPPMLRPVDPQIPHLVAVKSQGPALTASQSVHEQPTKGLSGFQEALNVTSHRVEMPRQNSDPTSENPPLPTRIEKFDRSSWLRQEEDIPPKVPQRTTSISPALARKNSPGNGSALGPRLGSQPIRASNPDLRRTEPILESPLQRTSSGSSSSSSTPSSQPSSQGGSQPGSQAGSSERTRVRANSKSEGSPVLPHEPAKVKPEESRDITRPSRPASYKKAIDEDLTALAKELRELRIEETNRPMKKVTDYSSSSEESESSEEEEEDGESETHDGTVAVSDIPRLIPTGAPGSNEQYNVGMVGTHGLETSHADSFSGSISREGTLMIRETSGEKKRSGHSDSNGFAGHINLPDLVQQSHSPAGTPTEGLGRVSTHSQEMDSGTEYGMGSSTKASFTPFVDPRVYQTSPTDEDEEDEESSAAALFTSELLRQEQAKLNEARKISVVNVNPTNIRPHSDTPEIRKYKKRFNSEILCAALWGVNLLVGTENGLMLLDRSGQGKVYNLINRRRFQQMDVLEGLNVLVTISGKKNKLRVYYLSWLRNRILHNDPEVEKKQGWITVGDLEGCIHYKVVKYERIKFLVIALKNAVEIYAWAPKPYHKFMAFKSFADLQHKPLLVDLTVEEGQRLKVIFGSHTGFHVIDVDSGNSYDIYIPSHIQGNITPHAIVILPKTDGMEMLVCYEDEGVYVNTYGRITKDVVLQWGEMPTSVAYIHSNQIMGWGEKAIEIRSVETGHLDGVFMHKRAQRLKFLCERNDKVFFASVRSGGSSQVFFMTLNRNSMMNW

Legend:
Assay in all cases: log2 fold change, soluble protein after heating vs DMSO (PISA); higher = thermal stabilisation; K562 cells, 10 uM, 30 min; active = over 0.2 and 3.5 SD of the protein, either way, in both replicates (recomputed)
bafetinib = compound: Cc1ccc(NC(=O)c2ccc(CN3CC[C@H](N(C)C)C3)c(C(F)(F)F)c2)cc1Nc1nccc(-c2cncnc2)n1 [bafetinib]
Method in brief: (§1)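 K562 cells at 2×10^6 cells/mL were treated with 10 μM compound for 30 min. Aliquots were heated for 3 min across 48°C-58°C, pooled, and extracted in PBS with 0.5% NP-40 at 4°C; soluble protein was the supernatant after 21,000xg for 90 min. Soluble protein was quantified by TMTpro 16plex LC-MS/MS with channel sums equalised, and reported as log2 fold change in thermal stability against DMSO controls, with values from duplicates.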

[1] = compound: Cc1cccc(CC(=O)N2CCc3c2ccc(-c2cn(C)c4ncnc(N)c24)c3F)n1
Method in brief: as §1

nilotinib = compound: Cc1cn(-c2cc(NC(=O)c3ccc(C)c(Nc4nccc(-c5cccnc5)n4)c3)cc(C(F)(F)F)c2)cn1 [nilotinib]
Method in brief: as §1

[2] = compound: Cc1nc(Nc2n[nH]c3c2CN(C(=O)N[C@H](CN(C)C)c2ccccc2)C3(C)C)c2sccc2n1
Method in brief: as §1

dasatinib = compound: Cc1nc(Nc2ncc(C(=O)Nc3c(C)cccc3Cl)s2)cc(N2CCN(CCO)CC2)n1 [dasatinib]
Method in brief: as §1

[3] = compound: Cc1ncc(-c2ccnc(Nc3ccc(S(C)(=O)=O)cc3)n2)n1C(C)C
Method in brief: as §1

[4] = compound: Cn1cc(-c2ccc3c(c2)CCN3C(=O)Cc2cccc(C(F)(F)F)c2)c2c(N)ncnc21
Method in brief: as §1

[5] = compound: Cn1cc(-c2ccc3nnc(C(F)(F)c4ccc5ncccc5c4)n3n2)cn1
Method in brief: as §1

tipifarnib = compound: Cn1cncc1[C@@](N)(c1ccc(Cl)cc1)c1ccc2c(c1)c(-c1cccc(Cl)c1)cc(=O)n2C [tipifarnib]
Method in brief: as §1

mubritinib = compound: FC(F)(F)c1ccc(/C=C/c2nc(COc3ccc(CCCCn4ccnn4)cc3)co2)cc1 [mubritinib]
Method in brief: as §1

Measured: log2 fold change

TRA2B (UniProt P62995)
inactive: bafetinib 0.167 | [1] -0.047 | nilotinib 0.152 | [2] -0.274 | dasatinib 0.197 | [3] 0.019 | [4] -0.395 | [5] -0.32 | tipifarnib 0.196 | mubritinib -0.103

TSC22D2 (UniProt O75157)
inactive: bafetinib -0.075 | [1] -0.124 | nilotinib 0.032 | [2] 0.085 | dasatinib 0.01 | [3] -0.075 | [4] 0.035 | [5] 0.138 | tipifarnib 0.099 | mubritinib 0.003

TOR1AIP1 (UniProt Q5JTV8)
inactive: bafetinib 0.011 | [1] -0.024 | nilotinib 0.021 | [2] 0.078 | dasatinib -0.008 | [3] -0.182 | [4] 0.071 | [5] 0.104 | tipifarnib -0.048 | mubritinib -0.014

TRAFD1 (UniProt O14545)
inactive: bafetinib -0.014 | [1] -0.038 | nilotinib 0.037 | [2] 0 | dasatinib 0.037 | [3] -0.007 | [4] 0.02 | [5] -0.01 | tipifarnib -0.027 | mubritinib -0.015

TPCN1 isoform 3 (UniProt Q9ULQ1)
inactive: bafetinib 0 | [1] -0.125 | nilotinib -0.186 | [2] -0.059 | dasatinib -0.02 | [3] 0.068 | [4] 0.02 | [5] 0.069 | tipifarnib 0.055 | mubritinib 0.064

TRAPPC1 (UniProt Q9Y5R8)
inactive: bafetinib -0.019 | [1] 0.139 | nilotinib -0.213 | [2] 0.029 | dasatinib -0.134 | [3] -0.077 | [4] 0.095 | [5] 0.003 | tipifarnib -0.016 | mubritinib -0.035

TRIP10 (UniProt Q15642)
inactive: bafetinib -0.042 | [1] 0.05 | nilotinib 0.098 | [2] -0.017 | dasatinib -0.06 | [3] -0.021 | [4] 0.045 | [5] 0.024 | tipifarnib -0.01 | mubritinib 0.048

TPI1 (UniProt P60174)
inactive: bafetinib -0.038 | [1] -0.041 | nilotinib -0.021 | [2] 0.003 | dasatinib 0.042 | [3] -0.01 | [4] 0.029 | [5] 0.015 | tipifarnib -0.028 | mubritinib 0.023

TRMT1 (UniProt Q9NXH9)
inactive: bafetinib -0.04 | [1] -0.006 | nilotinib 0 | [2] -0.006 | dasatinib 0.011 | [3] -0.045 | [4] 0.02 | [5] 0.024 | tipifarnib -0.035 | mubritinib 0.033

TOR1AIP1 isoform 3 (UniProt Q5JTV8)
inactive: bafetinib -0.057 | [1] -0.001 | nilotinib -0.006 | [2] 0.018 | dasatinib 0.005 | [3] -0.035 | [4] 0.031 | [5] 0.01 | tipifarnib -0.018 | mubritinib 0

TRIM11 (UniProt Q96F44)
inactive: bafetinib -0.027 | [1] -0.178 | nilotinib -0.077 | [2] -0.064 | dasatinib -0.139 | [3] -0.025 | [4] 0.032 | [5] -0.015 | tipifarnib 0.045 | mubritinib 0.148

TOR2A (UniProt Q5JU69)
inactive: bafetinib -0.062 | [1] -0.049 | nilotinib -0.022 | [2] -0.018 | dasatinib 0.041 | [3] -0.007 | [4] 0.254 | [5] -0.047 | tipifarnib 0.089 | mubritinib -0.049

TOR1A (UniProt O14656)
inactive: bafetinib -0.035 | [1] -0.029 | nilotinib -0.048 | [2] 0.001 | dasatinib -0.005 | [3] -0.006 | [4] 0.046 | [5] -0.01 | tipifarnib 0.023 | mubritinib 0.01

TRMT61A (UniProt Q96FX7)
inactive: bafetinib -0.051 | [1] 0.047 | nilotinib 0.036 | [2] 0.046 | dasatinib 0.011 | [3] -0.07 | [4] -0.11 | [5] -0.016 | tipifarnib 0.043 | mubritinib -0.125

TRIP10 isoform 2 (UniProt Q15642)
inactive: bafetinib -0.019 | [1] 0.026 | nilotinib 0.005 | [2] -0.174 | dasatinib 0.035 | [3] -0.162 | [4] -0.033 | [5] -0.135 | tipifarnib -0.04 | mubritinib 0.142

TRMT11 (UniProt Q7Z4G4)
inactive: bafetinib 0 | [1] -0.008 | nilotinib 0.007 | [2] -0.037 | dasatinib -0.041 | [3] 0.032 | [4] 0.069 | [5] -0.006 | tipifarnib 0.01 | mubritinib 0.069

TOP2B (UniProt Q02880)
inactive: bafetinib 0.259 | [1] 0.097 | nilotinib -0.08 | [2] -0.032 | dasatinib 0.095 | [3] -0.063 | [4] -0.179 | [5] -0.298 | tipifarnib 0.14 | mubritinib -0.231

TRIM32 (UniProt Q13049)
inactive: bafetinib 0.004 | [1] -0.041 | nilotinib -0.066 | [2] -0.022 | dasatinib 0.09 | [3] 0.079 | [4] 0.308 | [5] -0.044 | tipifarnib 0.049 | mubritinib -0.245

TPP1 (UniProt O14773)
active: bafetinib -0.48
inactive: [1] 0.007 | nilotinib 0.008 | [2] -0.031 | dasatinib -0.051 | [3] 0.022 | [4] -0.025 | [5] 0 | tipifarnib 0.049 | mubritinib -0.001

TRAPPC13 isoform 5 (UniProt A5PLN9)
inactive: bafetinib 0.11 | [1] 0.149 | nilotinib -0.019 | [2] 0 | [3] -0.056 | [4] 0.002 | [5] -0.112 | tipifarnib -0.011 | mubritinib 0.057
active: dasatinib -0.346

TOP1 (UniProt P11387)
inactive: bafetinib 0.07 | [1] -0.095 | nilotinib -0.037 | [2] 0.236 | dasatinib -0.014 | [3] 0.036 | [4] -0.162 | [5] -0.025 | tipifarnib 0.076 | mubritinib -0.13

TPM3 isoform 4 (UniProt P06753)
inactive: bafetinib -0.052 | [1] -0.043 | nilotinib 0.024 | [2] 0 | dasatinib 0.035 | [3] -0.055 | [4] 0.055 | [5] 0.037 | tipifarnib 0.037 | mubritinib 0.044

TOR4A (UniProt Q9NXH8)
inactive: bafetinib 0.077 | [1] 0.02 | nilotinib 0.011 | [2] 0.143 | dasatinib 0.02 | [3] -0.01 | [4] -0.119 | [5] -0.03 | tipifarnib 0 | mubritinib -0.062

TNKS1BP1 (UniProt Q9C0C2)
inactive: bafetinib -0.039 | [1] -0.032 | nilotinib 0.051 | [2] 0.015 | dasatinib 0.018 | [3] -0.011 | [4] 0.016 | [5] 0.007 | tipifarnib 0.016 | mubritinib 0.016

Quoted from the entries so far (8 entries):
TOP2B (UniProt Q02880)
inactive: bafetinib 0.259 | [1] 0.097 | nilotinib -0.08 | [2] -0.032 | dasatinib 0.095 | [3] -0.063 | [4] -0.179 | [5] -0.298 | tipifarnib 0.14 | mubritinib -0.231

TRIM32 (UniProt Q13049)
inactive: bafetinib 0.004 | [1] -0.041 | nilotinib -0.066 | [2] -0.022 | dasatinib 0.09 | [3] 0.079 | [4] 0.308 | [5] -0.044 | tipifarnib 0.049 | mubritinib -0.245

TPP1 (UniProt O14773)
active: bafetinib -0.48
inactive: [1] 0.007 | nilotinib 0.008 | [2] -0.031 | dasatinib -0.051 | [3] 0.022 | [4] -0.025 | [5] 0 | tipifarnib 0.049 | mubritinib -0.001

TRAPPC13 isoform 5 (UniProt A5PLN9)
inactive: bafetinib 0.11 | [1] 0.149 | nilotinib -0.019 | [2] 0 | [3] -0.056 | [4] 0.002 | [5] -0.112 | tipifarnib -0.011 | mubritinib 0.057
active: dasatinib -0.346

TOP1 (UniProt P11387)
inactive: bafetinib 0.07 | [1] -0.095 | nilotinib -0.037 | [2] 0.236 | dasatinib -0.014 | [3] 0.036 | [4] -0.162 | [5] -0.025 | tipifarnib 0.076 | mubritinib -0.13

TPM3 isoform 4 (UniProt P06753)
inactive: bafetinib -0.052 | [1] -0.043 | nilotinib 0.024 | [2] 0 | dasatinib 0.035 | [3] -0.055 | [4] 0.055 | [5] 0.037 | tipifarnib 0.037 | mubritinib 0.044

TOR4A (UniProt Q9NXH8)
inactive: bafetinib 0.077 | [1] 0.02 | nilotinib 0.011 | [2] 0.143 | dasatinib 0.02 | [3] -0.01 | [4] -0.119 | [5] -0.03 | tipifarnib 0 | mubritinib -0.062

TNKS1BP1 (UniProt Q9C0C2)
inactive: bafetinib -0.039 | [1] -0.032 | nilotinib 0.051 | [2] 0.015 | dasatinib 0.018 | [3] -0.011 | [4] 0.016 | [5] 0.007 | tipifarnib 0.016 | mubritinib 0.016

Continued.

TNPO1 (UniProt Q92973)
inactive: bafetinib -0.104 | [1] 0.022 | nilotinib -0.037 | [2] -0.128 | dasatinib -0.067 | [3] -0.079 | [4] -0.034 | [5] 0.009 | tipifarnib -0.026 | mubritinib 0.005

TPST2 (UniProt O60704)
inactive: bafetinib 0.051 | [1] 0.026 | nilotinib -0.113 | [2] 0.189 | dasatinib 0.025 | [3] 0.001 | [4] 0.029 | [5] -0.061 | tipifarnib 0.015 | mubritinib 0.185

TNFRSF1B (UniProt P20333)
inactive: bafetinib -0.184 | [1] -0.027 | nilotinib -0.037 | [2] -0.057 | dasatinib 0.092 | [3] 0.05 | [4] -0.014 | [5] -0.046 | tipifarnib 0.082 | mubritinib -0.034

TPM4 isoform 2 (UniProt P67936)
inactive: bafetinib -0.08 | [1] -0.064 | nilotinib 0.02 | [2] -0.044 | dasatinib -0.052 | [3] 0.054 | [4] -0.022 | [5] -0.047 | tipifarnib -0.157 | mubritinib -0.006

TNIK isoform 6 (UniProt Q9UKE5)
inactive: bafetinib -0.023 | [1] 0.006 | nilotinib -0.043 | [2] 0.033 | dasatinib -0.083 | [3] 0.093 | [4] 0.02 | [5] -0.051 | tipifarnib 0.019 | mubritinib 0.005
